Measurements as given in article PMC8110583.
These are yes or no findings as the source states them, for the method shown. Binding seen in cells or lysates may run through a third protein. Some entries that bind do so weakly or less than the wild type.

Amino acid sequences for entries named in this document (tags omitted).
UniProt P09874: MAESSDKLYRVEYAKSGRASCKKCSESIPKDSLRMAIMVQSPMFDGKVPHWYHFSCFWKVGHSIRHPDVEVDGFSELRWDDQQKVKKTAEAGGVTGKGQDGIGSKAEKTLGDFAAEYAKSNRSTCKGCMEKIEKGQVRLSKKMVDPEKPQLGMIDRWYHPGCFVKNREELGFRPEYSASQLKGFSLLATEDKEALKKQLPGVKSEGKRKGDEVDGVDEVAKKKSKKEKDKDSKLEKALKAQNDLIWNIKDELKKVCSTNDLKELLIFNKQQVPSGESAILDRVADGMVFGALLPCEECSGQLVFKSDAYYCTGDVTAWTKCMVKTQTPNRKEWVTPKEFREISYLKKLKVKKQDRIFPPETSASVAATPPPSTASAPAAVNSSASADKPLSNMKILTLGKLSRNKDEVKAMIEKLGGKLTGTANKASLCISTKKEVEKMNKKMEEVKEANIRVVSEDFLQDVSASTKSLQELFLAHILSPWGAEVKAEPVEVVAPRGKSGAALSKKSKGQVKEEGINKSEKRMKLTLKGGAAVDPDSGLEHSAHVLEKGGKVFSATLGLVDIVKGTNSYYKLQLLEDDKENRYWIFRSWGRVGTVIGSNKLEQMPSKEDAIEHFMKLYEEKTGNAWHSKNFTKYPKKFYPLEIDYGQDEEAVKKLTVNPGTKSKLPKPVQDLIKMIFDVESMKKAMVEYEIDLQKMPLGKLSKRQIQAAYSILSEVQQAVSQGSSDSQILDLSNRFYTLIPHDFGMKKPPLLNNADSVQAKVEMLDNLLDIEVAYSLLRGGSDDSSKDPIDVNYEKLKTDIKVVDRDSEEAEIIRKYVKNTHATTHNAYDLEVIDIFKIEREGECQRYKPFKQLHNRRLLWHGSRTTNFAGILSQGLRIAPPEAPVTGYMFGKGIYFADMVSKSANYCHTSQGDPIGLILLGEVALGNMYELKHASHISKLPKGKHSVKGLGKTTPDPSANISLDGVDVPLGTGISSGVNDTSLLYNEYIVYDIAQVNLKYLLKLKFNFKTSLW
UniProt P38159: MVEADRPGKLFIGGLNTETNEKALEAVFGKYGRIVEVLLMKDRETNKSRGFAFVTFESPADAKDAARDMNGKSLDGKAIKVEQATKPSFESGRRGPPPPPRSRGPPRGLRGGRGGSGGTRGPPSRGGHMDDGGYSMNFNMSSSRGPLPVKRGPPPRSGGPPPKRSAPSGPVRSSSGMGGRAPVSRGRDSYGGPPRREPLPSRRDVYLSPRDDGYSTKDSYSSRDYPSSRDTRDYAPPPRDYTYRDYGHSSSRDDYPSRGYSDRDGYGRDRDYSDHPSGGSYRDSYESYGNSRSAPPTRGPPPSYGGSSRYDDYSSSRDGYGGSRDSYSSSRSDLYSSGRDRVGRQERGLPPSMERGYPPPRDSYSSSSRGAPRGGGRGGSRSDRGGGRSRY

Molecular target: TDP-43 (human (endogenous in GPiNs, G401, T47D, A375)) (UniProt Q13148)
Experiment: co-IP; biological replicates of the TDP-43 IP from GPiN lysate, western blots with interactor-specific antibodies

Substance	binding
PARP1 (from UniProt P09874 1-1014)	binds
RBMX (from UniProt P38159 1-391)	binds
